# Laboratory results: patent US5580760, “FUSE binding protein and cDNA therefor” (The United States of America as represented by the …)
# For some of these results: A weaker result is weaker than the reference pair of the same experiment. For some of these results: Tags and fusion partners may be left off the protein sequences shown. For some of these results: Construct, isoform or probe ends are uncertain for at least one entry. For some of these results: A negative result means that nothing was seen under these conditions.
# Tests used:
# [1] = target: GST-FBP(145-511) (Homo sapiens) (UniProt Q96AE4); experiment: EMSA; details: purified recombinant protein, protein details: N-terminal GST (pGEX-2T), E. coli
# [2] = target: GST-FBP full length (Homo sapiens) (UniProt Q96AE4); experiment: competition with a labelled probe; details: 25 ng competitor, purified recombinant protein, protein details: N-terminal GST
# [3] = target: FBP (DROME), purified from HL60 cells (Homo sapiens) (UniProt Q96AE4); experiment: competition with a labelled probe; details: 25 ng competitor, purified native protein
# [4] = target: GST-FBP full length (Homo sapiens) (UniProt Q96AE4); experiment: EMSA; details: purified recombinant protein; protein details: N-terminal GST; label: 5'-32P
# [5] = target: FBP (DROME), purified from HL60 cells (Homo sapiens) (UniProt Q96AE4); experiment: EMSA; details: purified native protein; label: 5'-32P
# [6] = target: T1, GST-FBP 278-511 insertion mutant 6 insertion GIPR after 343 (Homo sapiens) (UniProt Q96AE4); experiment: EMSA; details: reduced binding; purified recombinant protein; protein details: N-terminal GST, C-terminal KEIEQKVQE; label: 5'-32P
# T1 sequence: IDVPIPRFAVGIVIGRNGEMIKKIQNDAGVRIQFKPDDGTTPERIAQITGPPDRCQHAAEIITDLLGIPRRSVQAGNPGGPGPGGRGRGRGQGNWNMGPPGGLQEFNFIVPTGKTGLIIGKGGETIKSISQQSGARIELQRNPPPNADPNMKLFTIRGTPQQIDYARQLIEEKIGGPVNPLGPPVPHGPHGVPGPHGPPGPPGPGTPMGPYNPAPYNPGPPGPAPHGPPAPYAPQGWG
# [7] = competes for FUSE binding, variant of FUSE
# [8] = no significant competition, variant of FUSE
# [9] = more divergent oligos did not compete significantly, variant of FUSE
sequence,measurement,setting,value
AATTCTCCTCCCCACCTTCCCCACCCTCCCCA (double strand) [CTE],binding result,[1],no binding
same,binding result,[2]; no significant competition,no binding
same,binding result,[3]; no significant competition,no binding
GATCACAAAATAAAAAATCCCGAGGGAATATAG (double strand) [FUSE],binding result,[4],binds
same,binding result,[5],binds
same,binding result,[6],binds more weakly
same,binding result,"[1]; 25 mM Tris, 200 mM glycine, 1 mM EDTA, poly(dI:dC), room temperature, label: 5'-32P",binds
GATCACAAAATAAAAAATGGACGCCGAATATAG (double strand) [Mut B],binding result,[2]; [7],binds
same,binding result,[3]; [7],binds
GATCACAACTACGTGCTAGGACGCCGAATATAG (double strand) [Mut A],binding result,[2]; [8],no binding
same,binding result,[3]; [8],no binding
GATCACAACTACGTGCTAGGCGAGGGAATATAG (double strand) [Mut C],binding result,[2]; [9],no binding
same,binding result,[3]; [9],no binding
GATCTGACGTCATGACTGACGTCATGACTGACGTCATCA (double strand) [CRE],binding result,[1],no binding
same,binding result,[2]; no significant competition,no binding
same,binding result,[3]; no significant competition,no binding
